From PMC13558869 come the findings set out here.

By UniProt entry, the sequences of proteins in these tests, tags left out.
UniProt Q9HC16: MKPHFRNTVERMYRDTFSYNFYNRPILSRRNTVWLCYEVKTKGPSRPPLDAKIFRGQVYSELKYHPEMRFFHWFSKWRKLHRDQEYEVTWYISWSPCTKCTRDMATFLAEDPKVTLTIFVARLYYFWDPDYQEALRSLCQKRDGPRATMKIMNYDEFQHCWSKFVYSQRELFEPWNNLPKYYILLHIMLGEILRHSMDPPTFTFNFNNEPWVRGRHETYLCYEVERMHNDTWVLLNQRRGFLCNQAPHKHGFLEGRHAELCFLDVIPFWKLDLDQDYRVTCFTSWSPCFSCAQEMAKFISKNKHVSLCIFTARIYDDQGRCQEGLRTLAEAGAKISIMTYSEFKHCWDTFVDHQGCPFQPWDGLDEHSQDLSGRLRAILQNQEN
UniProt O15234: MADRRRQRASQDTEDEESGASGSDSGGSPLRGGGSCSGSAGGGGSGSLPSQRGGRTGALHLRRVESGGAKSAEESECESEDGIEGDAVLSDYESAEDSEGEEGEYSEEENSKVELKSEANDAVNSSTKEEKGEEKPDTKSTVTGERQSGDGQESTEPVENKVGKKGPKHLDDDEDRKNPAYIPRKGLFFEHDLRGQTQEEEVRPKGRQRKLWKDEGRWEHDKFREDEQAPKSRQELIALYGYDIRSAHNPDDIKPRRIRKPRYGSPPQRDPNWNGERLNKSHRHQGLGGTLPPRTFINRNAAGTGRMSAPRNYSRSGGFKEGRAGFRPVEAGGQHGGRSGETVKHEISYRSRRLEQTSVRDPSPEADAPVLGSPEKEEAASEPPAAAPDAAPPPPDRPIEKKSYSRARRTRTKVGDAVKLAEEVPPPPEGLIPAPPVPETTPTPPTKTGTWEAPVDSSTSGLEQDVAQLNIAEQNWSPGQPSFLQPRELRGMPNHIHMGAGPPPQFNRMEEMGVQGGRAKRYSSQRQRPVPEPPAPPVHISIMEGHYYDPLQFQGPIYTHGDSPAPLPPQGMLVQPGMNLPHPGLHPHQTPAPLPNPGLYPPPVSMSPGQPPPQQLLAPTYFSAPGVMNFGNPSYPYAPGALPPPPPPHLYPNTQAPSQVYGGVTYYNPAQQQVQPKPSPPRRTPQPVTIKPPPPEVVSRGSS
UniProt Q658Y4: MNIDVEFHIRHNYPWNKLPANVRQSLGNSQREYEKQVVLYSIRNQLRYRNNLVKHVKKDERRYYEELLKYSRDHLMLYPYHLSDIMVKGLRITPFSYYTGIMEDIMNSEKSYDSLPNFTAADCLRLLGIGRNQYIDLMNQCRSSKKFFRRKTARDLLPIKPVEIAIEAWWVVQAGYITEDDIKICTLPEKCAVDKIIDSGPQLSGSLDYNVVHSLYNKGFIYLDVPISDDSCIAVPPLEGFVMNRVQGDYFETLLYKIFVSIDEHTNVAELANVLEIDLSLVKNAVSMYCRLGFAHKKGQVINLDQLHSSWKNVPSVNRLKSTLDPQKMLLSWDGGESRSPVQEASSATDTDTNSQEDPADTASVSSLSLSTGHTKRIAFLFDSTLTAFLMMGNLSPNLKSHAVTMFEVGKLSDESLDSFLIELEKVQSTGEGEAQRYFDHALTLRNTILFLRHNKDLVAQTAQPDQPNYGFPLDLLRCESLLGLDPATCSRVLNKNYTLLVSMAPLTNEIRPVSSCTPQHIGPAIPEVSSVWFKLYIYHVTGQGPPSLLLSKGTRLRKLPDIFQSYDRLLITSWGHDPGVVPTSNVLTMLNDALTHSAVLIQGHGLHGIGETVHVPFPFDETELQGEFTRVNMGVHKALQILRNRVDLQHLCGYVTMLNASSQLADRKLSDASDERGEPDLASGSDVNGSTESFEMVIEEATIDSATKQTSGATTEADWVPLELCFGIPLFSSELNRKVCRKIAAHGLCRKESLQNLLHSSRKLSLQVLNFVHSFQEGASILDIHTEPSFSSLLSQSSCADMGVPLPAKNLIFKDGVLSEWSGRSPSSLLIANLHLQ
UniProt P33241: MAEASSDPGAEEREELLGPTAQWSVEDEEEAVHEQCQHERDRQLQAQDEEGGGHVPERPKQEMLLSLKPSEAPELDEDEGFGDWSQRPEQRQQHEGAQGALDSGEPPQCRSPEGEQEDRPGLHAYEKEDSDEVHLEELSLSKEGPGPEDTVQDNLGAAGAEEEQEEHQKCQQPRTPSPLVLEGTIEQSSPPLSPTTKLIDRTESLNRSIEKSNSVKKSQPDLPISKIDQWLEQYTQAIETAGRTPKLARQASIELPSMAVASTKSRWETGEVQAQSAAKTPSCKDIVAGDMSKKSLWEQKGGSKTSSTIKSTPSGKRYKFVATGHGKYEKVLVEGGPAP
UniProt P11940: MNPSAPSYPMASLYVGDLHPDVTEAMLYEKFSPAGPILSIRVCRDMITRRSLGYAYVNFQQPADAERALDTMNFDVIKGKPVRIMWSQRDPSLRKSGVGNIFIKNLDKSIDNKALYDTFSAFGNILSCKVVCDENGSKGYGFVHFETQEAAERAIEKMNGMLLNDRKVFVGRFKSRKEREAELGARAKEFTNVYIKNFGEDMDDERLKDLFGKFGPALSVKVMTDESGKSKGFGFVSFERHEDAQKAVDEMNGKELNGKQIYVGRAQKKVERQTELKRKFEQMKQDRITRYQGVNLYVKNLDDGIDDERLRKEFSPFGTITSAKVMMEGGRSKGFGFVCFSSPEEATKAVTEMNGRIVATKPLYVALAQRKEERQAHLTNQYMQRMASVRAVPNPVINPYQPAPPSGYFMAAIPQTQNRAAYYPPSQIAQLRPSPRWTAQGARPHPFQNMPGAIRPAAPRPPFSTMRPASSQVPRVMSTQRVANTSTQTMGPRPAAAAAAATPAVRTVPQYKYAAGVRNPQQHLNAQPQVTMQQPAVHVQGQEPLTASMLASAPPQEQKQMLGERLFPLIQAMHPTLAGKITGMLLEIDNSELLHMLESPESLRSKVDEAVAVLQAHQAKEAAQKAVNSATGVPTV
UniProt O75381: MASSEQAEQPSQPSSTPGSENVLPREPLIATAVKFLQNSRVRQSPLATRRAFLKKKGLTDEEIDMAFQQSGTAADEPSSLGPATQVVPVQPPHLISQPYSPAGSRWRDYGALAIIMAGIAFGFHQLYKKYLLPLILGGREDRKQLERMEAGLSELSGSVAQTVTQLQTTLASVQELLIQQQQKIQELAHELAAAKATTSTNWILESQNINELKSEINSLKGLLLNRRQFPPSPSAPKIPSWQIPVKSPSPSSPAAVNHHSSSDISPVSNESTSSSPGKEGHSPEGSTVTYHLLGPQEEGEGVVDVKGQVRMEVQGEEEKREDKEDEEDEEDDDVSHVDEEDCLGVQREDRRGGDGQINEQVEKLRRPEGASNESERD
UniProt Q5VSL9: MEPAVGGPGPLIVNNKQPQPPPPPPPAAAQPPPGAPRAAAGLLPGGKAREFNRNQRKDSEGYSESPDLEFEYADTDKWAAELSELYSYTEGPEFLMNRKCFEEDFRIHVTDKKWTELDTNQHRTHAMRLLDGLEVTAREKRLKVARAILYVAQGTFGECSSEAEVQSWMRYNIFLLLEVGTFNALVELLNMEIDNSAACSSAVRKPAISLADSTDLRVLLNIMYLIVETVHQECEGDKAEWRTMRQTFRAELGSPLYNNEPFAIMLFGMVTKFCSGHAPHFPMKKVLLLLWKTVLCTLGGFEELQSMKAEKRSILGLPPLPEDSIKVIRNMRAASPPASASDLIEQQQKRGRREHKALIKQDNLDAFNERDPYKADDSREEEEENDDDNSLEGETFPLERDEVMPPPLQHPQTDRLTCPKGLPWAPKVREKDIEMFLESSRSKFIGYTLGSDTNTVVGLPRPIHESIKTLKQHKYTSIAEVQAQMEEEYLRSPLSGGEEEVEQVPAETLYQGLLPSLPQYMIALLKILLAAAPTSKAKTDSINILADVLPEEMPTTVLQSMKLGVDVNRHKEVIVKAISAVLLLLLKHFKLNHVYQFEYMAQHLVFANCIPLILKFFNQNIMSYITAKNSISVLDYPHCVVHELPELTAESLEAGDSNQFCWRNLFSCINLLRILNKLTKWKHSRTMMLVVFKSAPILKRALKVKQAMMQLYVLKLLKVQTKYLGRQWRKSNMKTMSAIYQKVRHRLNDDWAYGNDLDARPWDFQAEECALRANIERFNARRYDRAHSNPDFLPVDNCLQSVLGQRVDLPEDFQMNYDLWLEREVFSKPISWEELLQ

Results are given in words; binding and its absence hold for the method and conditions named. In cells and extracts the contact can be indirect. Here binding means that the protein was enriched with, or labelled near, the bait; the list need not be complete.

The experiment deals with T1, ZFP36L1 (human (endogenous in primary T cells)) (UniProt Q07352).
T1 sequence: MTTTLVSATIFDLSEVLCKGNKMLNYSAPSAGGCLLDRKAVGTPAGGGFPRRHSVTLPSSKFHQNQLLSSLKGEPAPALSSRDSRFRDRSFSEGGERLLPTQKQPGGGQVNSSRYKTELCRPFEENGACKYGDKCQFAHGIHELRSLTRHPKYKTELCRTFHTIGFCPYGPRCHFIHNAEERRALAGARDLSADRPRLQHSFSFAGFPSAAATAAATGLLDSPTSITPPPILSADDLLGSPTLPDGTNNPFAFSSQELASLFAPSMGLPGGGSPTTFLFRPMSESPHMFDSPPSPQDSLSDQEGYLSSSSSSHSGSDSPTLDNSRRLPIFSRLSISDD
Kind of experiment: affinity purification with mass spectrometry; Co-IP of endogenous ZFP36L1 with 10 μg anti-ZFP36L1 (1A3) or IgG control on Protein A Dynabeads, 4 h at 4°C, from cytoplasmic (1% digitonin) lysates of αCD3/αCD28-activated human CD3+ T cells at 0, 2, 5, 16 h; lysates untreated or treated with 200 U/ml RNAse A throughout; MS.

In the case of Fam98A (from UniProt Q8NCA5 1-518), the binding entry is “binds”. To APOBEC3G (from UniProt Q9HC16 1-384) belongs “binds”.

For the molecule “DISL3 (human (endogenous in primary T cells))”, the binding result is recorded as “binds”. Consider CASC3 (from UniProt O15234 1-703), for which the binding entry is listed as “binds”. To FAM91A1 (from UniProt Q658Y4 1-838) belongs “binds”; to LSP1 (from UniProt P33241 1-339), “binds”. To AGO3 (from UniProt Q9H9G7 1-860) belongs “binds”; to PABPC1 (from UniProt P11940 1-636), “binds”.

With PEX14 (from UniProt O75381 1-377), the binding entry was “binds”. As to STRIP1 (from UniProt Q5VSL9 1-837), the binding result was “binds”.

B1: WDR11 (protein, UniProt Q9BZH6 1-1224)
chain: MLPYTVNFKVSARTLTGALNAHNKAAVDWGWQGLIAYGCHSLVVVIDSITAQTLQVLEKHKADVVKVKWARENYHHNIGSPYCLRLASADVNGKIIVWDVAAGVAQCEIQEHAKPIQDVQWLWNQDASRDLLLAIHPPNYIVLWNADTGTKLWKKSYADNILSFSFDPFDPSHLTLLTSEGIVFISDFSPSKPPSGPGKKVYISSPHSSPAHNKLATATGAKKALNKVKILITQEKPSAEFITLNDCLQLAYLPSKRNHMLLLYPREILILDLEVNQTVGVIAIERTGVPFLQVIPCFQRDGLFCLHENGCITLRVRRSYNNIFTTSNEEPDPDPVQELTYDLRSQCDAIRVTKTVRPFSMVCCPVNENAAALVVSDGRVMIWELKSAVCNRNSRNSSSGVSPLYSPVSFCGIPVGVLQNKLPDLSLDNMIGQSAIAGEEHPRGSILREVHLKFLLTGLLSGLPAPQFAIRMCPPLTTKNIKMYQPLLAVGTSNGSVLVYHLTSGLLHKELSIHSCEVKGIEWTSLTSFLSFATSTPNNMGLVRNELQLVDLPTGRSIAFRGERGNDESAIEMIKVSHLKQYLAVVFRDKPLELWDVRTCTLLREMSKNFPTITALEWSPSHNLKSLRKKQLATREAMARQTVVSDTELSIVESSVISLLQEAESKSELSQNISAREHFVFTDIDGQVYHLTVEGNSVKDSARIPPDGSMGSITCIAWKGDTLVLGDMDGNLNFWDLKGRVSRGIPTHRSWVRKIRFAPGKGNQKLIAMYNDGAEVWDTKEVQMVSSLRSGRNVTFRILDVDWCTSDKVILASDDGCIRVLEMSMKSACFRMDEQELTEPVWCPYLLVPRASLALKAFLLHQPWNGQYSLDISHVDYPENEEIKNLLQEQLNSLSNDIKKLLLDPEFTLLQRCLLVSRLYGDESELHFWTVAAHYLHSLSQEKSASTTAPKEAAPRDKLSNPLDICYDVLCENAYFQKFQLERVNLQEVKRSTYDHTRKCTDQLLLLGQTDRAVQLLLETSADNQHYYCDSLKACLVTTVTSSGPSQSTIKLVATNMIANGKLAEGVQLLCLIDKAADACRYLQTYGEWNRAAWLAKVRLNPEECADVLRRWVDHLCSPQVNQKSKALLVLLSLGCFFSVAETLHSMRYFDRAALFVEACLKYGAFEVTEDTEKLITAIYADYARSLKNLGFKQGAVLFASKAGAAGKDLLNELESPKEEPIEE
With B1, the binding result is “binds”.

B2: HAUS3 (protein, UniProt Q68CZ6 1-603)
chain: MSCGNEFVETLKKIGYPKADNLNGEDFDWLFEGVEDESFLKWFCGNVNEQNVLSERELEAFSILQKSGKPILEGAALDEALKTCKTSDLKTPRLDDKELEKLEDEVQTLLKLKNLKIQRRNKCQLMASVTSHKSLRLNAKEEEATKKLKQSQGILNAMITKISNELQALTDEVTQLMMFFRHSNLGQGTNPLVFLSQFSLEKYLSQEEQSTAALTLYTKKQFFQGIHEVVESSNEDNFQLLDIQTPSICDNQEILEERRLEMARLQLAYICAQHQLIHLKASNSSMKSSIKWAEESLHSLTSKAVDKENLDAKISSLTSEIMKLEKEVTQIKDRSLPAVVRENAQLLNMPVVKGDFDLQIAKQDYYTARQELVLNQLIKQKASFELLQLSYEIELRKHRDIYRQLENLVQELSQSNMMLYKQLEMLTDPSVSQQINPRNTIDTKDYSTHRLYQVLEGENKKKELFLTHGNLEEVAEKLKQNISLVQDQLAVSAQEHSFFLSKRNKDVDMLCDTLYQGGNQLLLSDQELTEQFHKVESQLNKLNHLLTDILADVKTKRKTLANNKLHQMEREFYVYFLKDEDYLKDIVENLETQSKIKAVSLED
Consider B2, for which the binding result is listed as “binds”.

B3: Stau2 (protein, UniProt Q9NUL3 1-570)
chain: MANPKEKTAMCLVNELARFNRVQPQYKLLNERGPAHSKMFSVQLSLGEQTWESEGSSIKKAQQAVANKALTESTLPKPVQKPPKSNVNNNPGSITPTVELNGLAMKRGEPAIYRPLDPKPFPNYRANYNFRGMYNQRYHCPVPKIFYVQLTVGNNEFFGEGKTRQAARHNAAMKALQALQNEPIPERSPQNGESGKDVDDDKDANKSEISLVFEIALKRNMPVSFEVIKESGPPHMKSFVTRVSVGEFSAEGEGNSKKLSKKRAATTVLQELKKLPPLPVVEKPKLFFKKRPKTIVKAGPEYGQGMNPISRLAQIQQAKKEKEPDYVLLSERGMPRRREFVMQVKVGNEVATGTGPNKKIAKKNAAEAMLLQLGYKASTNLQDQLEKTGENKGWSGPKPGFPEPTNNTPKGILHLSPDVYQEMEASRHKVISGTTLGYLSPKDMNQPSSSFFSISPTSNSSATIARELLMNGTSSTAEAIGLKGSSPTPPCSPVQPSKQLEYLARIQGFQAALSALKQFSEQGLDPIDGAMNIEKGSLEKQAKHLREKADNNQAPPGSIAQDCKKSNSAV
Take B3: the binding result was “binds”.

B4: RBM27 (protein, UniProt Q9P2N5 1-1060)
chain: MLIEDVDALKSWLAKLLEPICDADPSALANYVVALVKKDKPEKELKAFCADQLDVFLQKETSGFVDKLFESLYTKNYLPLLEPVKPEPKPLVQEKEEIKEEVFQEPAEEERDGRKKKYPSPQKTRSESSERRTREKKREDGKWRDYDRYYERNELYREKYDWRRGRSKSRSKSRGLSRSRSRSRGRSKDRDPNRNVEHRERSKFKSERNDLESSYVPVSAPPPNSSEQYSSGAQSIPSTVTVIAPAHHSENTTESWSNYYNNHSSSNSFGRNLPPKRRCRDYDERGFCVLGDLCQFDHGNDPLVVDEVALPSMIPFPPPPPGLPPPPPPGMLMPPMPGPGPGPGPGPGPGPGPGPGPGHSMRLPVPQGHGQPPPSVVLPIPRPPITQSSLINSRDQPGTSAVPNLASVGTRLPPPLPQNLLYTVSERQPMYSREHGAAASERLQLGTPPPLLAARLVPPRNLMGSSIGYHTSVSSPTPLVPDTYEPDGYNPEAPSITSSGRSQYRQFFSRTQTQRPNLIGLTSGDMDVNPRAANIVIQTEPPVPVSINSNITRVVLEPDSRKRAMSGLEGPLTKKPWLGKQGNNNQNKPGFLRKNQYTNTKLEVKKIPQELNNITKLNEHFSKFGTIVNIQVAFKGDPEAALIQYLTNEEARKAISSTEAVLNNRFIRVLWHRENNEQPTLQSSAQLLLQQQQTLSHLSQQHHHLPQHLHQQQVLVAQSAPSTVHGGIQKMMSKPQTSGAYVLNKVPVKHRLGHAGGNQSDASHLLNQSGGAGEDCQIFSTPGHPKMIYSSSNLKTPSKLCSGSKSHDVQEVLKKKQEAMKLQQDMRKKRQEVLEKQIECQKMLISKLEKNKNMKPEERANIMKTLKELGEKISQLKDELKTSSAVSTPSKVKTKTEAQKELLDTELDLHKRLSSGEDTTELRKKLSQLQVEAARLGILPVGRGKTMSSQGRGRGRGRGGRGRGSLNHMVVDHRPKALTVGGFIEEEKEDLLQHFSTANQGPKFKDRRLQISWHKPKVPSISTETEEEEVKEEETETSDLFLPDDDDEDEDEYESRSWRR
Consider B4, for which the binding result is on record as “binds”.

B5: ZFP36L2 (protein, UniProt P47974 1-494)
chain: MSTTLLSAFYDVDFLCKTEKSLANLNLNNMLDKKAVGTPVAAAPSSGFAPGFLRRHSASNLHALAHPAPSPGSCSPKFPGAANGSSCGSAAAGGPTSYGTLKEPSGGGGTALLNKENKFRDRSFSENGDRSQHLLHLQQQQKGGGGSQINSTRYKTELCRPFEESGTCKYGEKCQFAHGFHELRSLTRHPKYKTELCRTFHTIGFCPYGPRCHFIHNADERRPAPSGGASGDLRAFGTRDALHLGFPREPRPKLHHSLSFSGFPSGHHQPPGGLESPLLLDSPTSRTPPPPSCSSASSCSSSASSCSSASAASTPSGAPTCCASAAAAAAAALLYGTGGAEDLLAPGAPCAACSSASCANNAFAFGPELSSLITPLAIQTHNFAAVAAAAYYRSQQQQQQQGLAPPAQPPAPPSATLPAGAAAPPSPPFSFQLPRRLSDSPVFDAPPSPPDSLSDRDSYLSGSLSSGSLSGSESPSLDPGRRLPIFSRLSISDD
Regarding B5, the binding entry is “binds”.

B6: HAUS5 (protein, UniProt O94927 1-633)
chain: MELAQEARELGCWAVEEMGVPVAARAPESTLRRLCLGQGADIWAYILQHVHSQRTVKKIRGNLLWYGHQDSPQVRRKLELEAAVTRLRAEIQELDQSLELMERDTEAQDTAMEQARQHTQDTQRRALLLRAQAGAMRRQQHTLRDPMQRLQNQLRRLQDMERKAKVDVTFGSLTSAALGLEPVVLRDVRTACTLRAQFLQNLLLPQAKRGSLPTPHDDHFGTSYQQWLSSVETLLTNHPPGHVLAALEHLAAEREAEIRSLCSGDGLGDTEISRPQAPDQSDSSQTLPSMVHLIQEGWRTVGVLVSQRSTLLKERQVLTQRLQGLVEEVERRVLGSSERQVLILGLRRCCLWTELKALHDQSQELQDAAGHRQLLLRELQAKQQRILHWRQLVEETQEQVRLLIKGNSASKTRLCRSPGEVLALVQRKVVPTFEAVAPQSRELLRCLEEEVRHLPHILLGTLLRHRPGELKPLPTVLPSIHQLHPASPRGSSFIALSHKLGLPPGKASELLLPAAASLRQDLLLLQDQRSLWCWDLLHMKTSLPPGLPTQELLQIQASQEKQQKENLGQALKRLEKLLKQALERIPELQGIVGDWWEQPGQAALSEELCQGLSLPQWRLRWVQAQGALQKLCS
For B6, the binding entry is “binds”.

B7: AIMP2 (protein, UniProt Q13155 1-320)
chain: MPMYQVKPYHGGGAPLRVELPTCMYRLPNVHGRSYGPAPGAGHVQEESNLSLQALESRQDDILKRLYELKAAVDGLSKMIQTPDADLDVTNIIQADEPTTLTTNALDLNSVLGKDYGALKDIVINANPASPPLSLLVLHRLLCEHFRVLSTVHTHSSVKSVPENLLKCFGEQNKKQPRQDYQLGFTLIWKNVPKTQMKFSIQTMCPIEGEGNIARFLFSLFGQKHNAVNATLIDSWVDIAIFQLKEGSSKEKAAVFRSMNSALGKSPWLAGNELTVADVVLWSVLQQIGGCSVTVPANVQRWMRSCENLAPFNTALKLLK
As for B7, the binding entry is “binds”.
